± gives the standard deviation. Only a part is listed here, and it is no random draw. The uncertainty is large for many entries.
system: MILI (PIWIL2) piRISC loaded with piRNA #1 (26 nt); assay: pre-steady-state target cleavage rate (min^-1); MIWI and MILI are mouse PIWI proteins and EfPiwi is from a freshwater sponge; tags in brackets are library labels; higher = faster piRNA-guided slicing of the target; conditions: guide: piRNA #1 5'p-UGAGGUAGUAGGUUGUAUAGUAUCCA; auxiliary factor: 500 nM mouse GTSF1
Summary of the method: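 Three pooled Cleave-'n-Seq trials supplied the data, with k3 capped at 0.0001 min^-1. In each, […] transcribed, DNA-blocked target RNA library and 1 nM active affinity-purified piRISC with one synthetic guide reacted in HEPES–potassium acetate buffer at 33 °C for 0–8 or 0–960 min, with or without 500 nM GTSF1 partner protein. Uncleaved targets were sequenced and normalised to depth and to weakly complementary targets. A burst-and-steady-state fit provided the pre-steady-state cleavage rate.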
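Note: 1 nM active piRISC with 0.1 nM target library at 33 °C single turnover.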

Sequence | pre-steady-state target cleavage rate
GGAGACCUAUGAUAUCAACCUACAAGCUCA | 0.000256 ± 0.012
GGAGACGAUACUAUACAACCUUCUACCUGA | 0.00247 ± 0.0037
GGAGACCUAACUAUACAAACCUACUACCUCA | 0.000763 ± 0.015
GGAGUGGAUACUAUACUUGGAUGAUGGAGA [g15:g26:cont:t1A] | 0.000185 ± 0.028
GGAGACCUAUGAUAACAACCAUGAUGGAGA [g11:g16:cont:t1A] | 0.00012 ± 0.023
GGAGACCUAUGAAUACAAUCCUACUACCUCA | 0.000677 ± 0.0067
GGAGACCAUACUAUACAACGCUACUACCUCA | 0.00143 ± 0.0067
GGAGACCAUACUUUACAACCUAGUACCUCA | 0.119 ± 0.025
GGAGACGAUACUAUACAACCAACAACCUCA | 0.00726 ± 0.0036
GGAGACCAUACUUUACAACCUACUACCUCA | 0.168 ± 0.014
GGAGACGAUACUAUACAACGUACUACCACA | 0.0317 ± 0.0055
GGAGACCUAUGAUAACAACGAACUACCUCA | 0.000256 ± 0.01
GGAGUGGAUACUAUACAACCUACUACGACA | 0.0497 ± 0.008
GGAGACGAUUCUAUACAUCCUACUACCUCA | 0.267 ± 0.018
GGAGACCUAUGAUUACUAGCUACUACCUCA | 0.00253 ± 0.003
GGAGACCUAUCUUACAACCUACUACCUCA | 0.0336 ± 0.0082
GGAGACCUUACUAUACAUCCUACUACCUGA | 0.195 ± 0.033
GGAGACCUAUCUAUACAACGAUGAUGGAGA [g12:g20:cont:t1A] | 0.000283 ± 0.02
GGAGACCAUACUAUACAACCUACGACCUCA | 0.137 ± 0.018
GGAGUGGAUACUAUACAACCUACGACCUCA | 0.0834 ± 0.0092

In a second layout: entries from further up
Sequence	pre-steady-state target cleavage rate
GGAGACCUAUCUUACAACCUACUACCUCA	0.0336 ± 0.0082
GGAGACCUUACUAUACAUCCUACUACCUGA	0.195 ± 0.033
GGAGACCUAUCUAUACAACGAUGAUGGAGA [g12:g20:cont:t1A]	0.000283 ± 0.02

Continued.

Sequence | pre-steady-state target cleavage rate
GGAGACCAUACAAUACAACCUACUACCUGA | 0.12 ± 0.019
GGAGUGGAUUCUAUUCAACCUACUACCUCA | 0.165 ± 0.008
GGAGACCUAUGAUAUCAAGCUACUUCCUCA | 0.00275 ± 0.0035
GGAGACCAUACAAUACUACCUACUACCUCA | 0.158 ± 0.019
GGAGACCUAACUAUAGCAACCUACUACCUCA | 0.0973 ± 0.023
GGAGACCAUACUAUACAACCUACUACCUA | 0.125 ± 0.016
GGAGACGAUACUAUACAACCUACUACCCUCA | 0.176 ± 0.021
GGAGACCAAACUAUACAACCAACUACCUCA | 0.00252 ± 0.0084
GGAGACCAUACUAUACAACCUACUUCCACA | 0.0785 ± 0.018
GGAGACCUAUGAUAUGAACCCACUACCUCA | 0.000255 ± 0.014
GGAGACCUAUGAUAUGUACCAACUACCACA | 0.000297 ± 0.014
GGAGACCUAUGAAUACAACCUUGAACCUCA | 0.000188 ± 0.016
GGAGACCUAUGAAUUCAACCUACUUCCUCA | 0.000222 ± 0.024
GGAGAGGAUACUAUACAAGCCUACUACCUCA | 0.00283 ± 0.0037
GGAGACCUAUGAUAACAACCUACUACCAGA | 0.00109 ± 0.005
GGAGACCUUACUAAAGAACCUACUACCUCA | 0.105 ± 0.011
GGAGACCUAUCUACACAACCUACUACCUCA | 0.072 ± 0.0099
GGAGACCUAACUAUACAACCUAGUAGCUCA | 0.00103 ± 0.013
GGAGACCUUACUAUACCACCUACUACCUCA | 0.109 ± 0.014
GGAGACCUAUGAUAACAACCUACUUGGAGA [g7:g16:cont:t1A] | 0.000301 ± 0.015

From the supplement of paper PMC10338343
